{"source": "the supplement of paper PMC4604168 (melanoma cell lines)", "note": "This is one part of the list. Many values rest on one well or one pass, so single values are uncertain.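 The apoptosis fraction was the count of cleaved-PARP antibody-stained nuclei relative to all DNA-stained nuclei, imaged in 1,536-well plates. Screening doses were set so most cells survived, and baseline and induced cleaved-PARP levels vary greatly across cell lines.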"}
{"tested_on": "IST-MEL1", "assay": "cleaved PARP positive nuclei fraction relative to DMSO control; melanoma cells; higher = more apoptosis", "conditions": "library dose: low library concentration; 72 h", "units": {"cleaved PARP positive nuclei fraction": "%"}}
{"smiles": "C[As](C)SC[C@H](NC(=O)CC[C@H](N)C(=O)O)C(=O)NCC(=O)O", "note": "[Darinaparsin] + c1cc(-c2cnn3cc(-c4ccc(OCCN5CCCCC5)cc4)cnc23)ccn1 [Dorsomorphin] (first compound 0.4 µM, partner dose 0.4 µM)", "cleaved PARP positive nuclei fraction": 88.1}
{"smiles": "Cc1nc(Nc2ncc(C(=O)Nc3c(C)cccc3Cl)s2)cc(N2CCN(CCO)CC2)n1", "note": "[dasatanib] + Cc1cc(SCc2sc(-c3ccc(C(F)(F)F)c(F)c3)nc2C)ccc1OCC(=O)O [GW0742] (first compound 0.004 µM, partner dose 2 µM)", "cleaved PARP positive nuclei fraction": 149}
{"smiles": "C/C(O)=C(\\C#N)C(=O)Nc1cc(Br)ccc1Br", "note": "+ Oc1nc(-c2ccc(C(F)(F)F)cc2)nc2c1CSCC2 [XAV939] (first compound 2 µM, partner dose 2 µM)", "cleaved PARP positive nuclei fraction": 29.2}
{"smiles": "O=C(Nc1cccc(Cl)c1)Nc1ncc(CCNc2ncnc3ccsc23)s1", "note": "+ C/C(O)=C(\\C#N)C(=O)Nc1cc(Br)ccc1Br [LFM-A13] (first compound 0.0008 µM, partner dose 2 µM)", "cleaved PARP positive nuclei fraction": 415}
{"smiles": "Cc1ccc(NC(=O)c2cccc(N(C)C)c2)cc1NC(=O)c1ccc(O)cc1", "note": "+ O=C(Oc1ccc([N+](=O)[O-])cc1)N1CCC(C(O)(c2ccc3c(c2)OCO3)c2ccc3c(c2)OCO3)CC1 [JZL184] (first compound 2 µM, partner dose 1 µM)", "cleaved PARP positive nuclei fraction": 28.2}
{"smiles": "O=C(Oc1ccc([N+](=O)[O-])cc1)N1CCC(C(O)(c2ccc3c(c2)OCO3)c2ccc3c(c2)OCO3)CC1", "note": "+ CC(C)CCN1c2nc(Nc3cc(F)c(O)c(F)c3)ncc2N(C)C(=O)C1C [BID1870] (first compound 1 µM, partner dose 0.2 µM)", "cleaved PARP positive nuclei fraction": 72.1}
{"smiles": "OCCn1cc(-c2cnc3nnn(Cc4ccc5ncccc5c4)c3n2)cn1", "note": "+ C/C(O)=C(\\C#N)C(=O)Nc1cc(Br)ccc1Br [LFM-A13] (first compound 1 µM, partner dose 2 µM)", "cleaved PARP positive nuclei fraction": 59.1}
{"smiles": "C[As](C)SC[C@H](NC(=O)CC[C@H](N)C(=O)O)C(=O)NCC(=O)O", "note": "[Darinaparsin] + O=C1NC(=O)/C(=C/c2ccc(-c3ccc(F)cc3O)o2)S1 [AS252424] (first compound 0.4 µM, partner dose 1 µM)", "cleaved PARP positive nuclei fraction": 26.3}
{"smiles": "Nc1cccc2c1CN(C1CCC(=O)NC1=O)C2=O", "note": "(stereo not drawn) [lenalidomide] + Cc1cc(SCc2sc(-c3ccc(C(F)(F)F)c(F)c3)nc2C)ccc1OCC(=O)O [GW0742] (first compound 1 µM, partner dose 2 µM)", "cleaved PARP positive nuclei fraction": 116}
{"smiles": "C/C(O)=C(\\C#N)C(=O)Nc1cc(Br)ccc1Br", "note": "+ CCCCCCCCCCCC1=C(O)C(=O)C=C(O)C1=O [Embelin] (first compound 2 µM, partner dose 1.2 µM)", "cleaved PARP positive nuclei fraction": 177}
{"smiles": "Cc1cc(SCc2sc(-c3ccc(C(F)(F)F)c(F)c3)nc2C)ccc1OCC(=O)O", "note": "+ Cn1cc(/C=C2\\C(=O)Nc3cccnc32)c2ccccc21 [GW441756] (first compound 2 µM, partner dose 0.4 µM)", "cleaved PARP positive nuclei fraction": 95.6}
{"smiles": "C[As](C)SC[C@H](NC(=O)CC[C@H](N)C(=O)O)C(=O)NCC(=O)O", "note": "[Darinaparsin] + Cc1cc([N+](=O)[O-])ccc1NS(=O)(=O)c1cc(Cl)ccc1Cl [FH535] (first compound 0.4 µM, partner dose 1 µM)", "cleaved PARP positive nuclei fraction": 191}
{"smiles": "C=CCn1c(=O)c2cnc(Nc3ccc(N4CCN(C)CC4)cc3)nc2n1-c1cccc(C(C)(C)O)n1", "note": "+ O=C(Oc1ccc([N+](=O)[O-])cc1)N1CCC(C(O)(c2ccc3c(c2)OCO3)c2ccc3c(c2)OCO3)CC1 [JZL184] (first compound 0.02 µM, partner dose 1 µM)", "cleaved PARP positive nuclei fraction": 81.4}
{"smiles": "C/C(O)=C(\\C#N)C(=O)Nc1cc(Br)ccc1Br", "note": "+ c1cc(-c2cnn3cc(-c4ccc(OCCN5CCCCC5)cc4)cnc23)ccn1 [Dorsomorphin] (first compound 2 µM, partner dose 0.4 µM)", "cleaved PARP positive nuclei fraction": 29.4}
{"smiles": "C/C(O)=C(\\C#N)C(=O)Nc1cc(Br)ccc1Br", "note": "+ O=C(Oc1ccc([N+](=O)[O-])cc1)N1CCC(C(O)(c2ccc3c(c2)OCO3)c2ccc3c(c2)OCO3)CC1 [JZL184] (first compound 2 µM, partner dose 1 µM)", "cleaved PARP positive nuclei fraction": 156}
{"smiles": "Cc1cc(SCc2sc(-c3ccc(C(F)(F)F)c(F)c3)nc2C)ccc1OCC(=O)O", "note": "+ O=C1NC(=O)/C(=C/c2ccc(-c3ccc(F)cc3O)o2)S1 [AS252424] (first compound 2 µM, partner dose 1 µM)", "cleaved PARP positive nuclei fraction": 44}
{"smiles": "CCc1ccc(CCOc2ccc(CC3SC(=O)NC3=O)cc2)nc1", "note": "(stereo not drawn) [pioglitazone] + Cc1cc(SCc2sc(-c3ccc(C(F)(F)F)c(F)c3)nc2C)ccc1OCC(=O)O [GW0742] (first compound 2 µM, partner dose 2 µM)", "cleaved PARP positive nuclei fraction": 86.4}
{"smiles": "COc1ccc2c(c1)CCC1C2CCC2(C)C(NCCCCCCN3C(=O)C=CC3=O)CCC12", "note": "(stereo not drawn) + O=C(Oc1ccc([N+](=O)[O-])cc1)N1CCC(C(O)(c2ccc3c(c2)OCO3)c2ccc3c(c2)OCO3)CC1 [JZL184] (first compound 0.4 µM, partner dose 1 µM)", "cleaved PARP positive nuclei fraction": 114}
{"smiles": "Cc1cc(SCc2sc(-c3ccc(C(F)(F)F)c(F)c3)nc2C)ccc1OCC(=O)O", "note": "+ O=C(Oc1ccc([N+](=O)[O-])cc1)N1CCC(C(O)(c2ccc3c(c2)OCO3)c2ccc3c(c2)OCO3)CC1 [JZL184] (first compound 2 µM, partner dose 1 µM)", "cleaved PARP positive nuclei fraction": 43.6}
{"smiles": "C/C(O)=C(\\C#N)C(=O)Nc1cc(Br)ccc1Br", "note": "+ Cc1cc([N+](=O)[O-])ccc1NS(=O)(=O)c1cc(Cl)ccc1Cl [FH535] (first compound 2 µM, partner dose 1 µM)", "cleaved PARP positive nuclei fraction": 151}
{"smiles": "NCC(=O)Nc1ccc(-n2nc(C(F)(F)F)cc2-c2ccc3c(ccc4ccccc43)c2)cc1", "note": "+ O=C(Oc1ccc([N+](=O)[O-])cc1)N1CCC(C(O)(c2ccc3c(c2)OCO3)c2ccc3c(c2)OCO3)CC1 [JZL184] (first compound 1 µM, partner dose 1 µM)", "cleaved PARP positive nuclei fraction": 106}
{"smiles": "O=C(O)C(=O)Nc1sc2c(c1C(=O)O)CCNC2", "note": "+ C/C(O)=C(\\C#N)C(=O)Nc1cc(Br)ccc1Br [LFM-A13] (first compound 1.66667 µM, partner dose 2 µM)", "cleaved PARP positive nuclei fraction": 27.2}
{"smiles": "COc1ccc2c(c1)CCC1C2CCC2(C)C(NCCCCCCN3C(=O)C=CC3=O)CCC12", "note": "(stereo not drawn) + Cc1cc(SCc2sc(-c3ccc(C(F)(F)F)c(F)c3)nc2C)ccc1OCC(=O)O [GW0742] (first compound 0.4 µM, partner dose 2 µM)", "cleaved PARP positive nuclei fraction": 229}
{"smiles": "Cc1ccc(NC(=O)c2cccc(N(C)C)c2)cc1NC(=O)c1ccc(O)cc1", "note": "+ C/C(O)=C(\\C#N)C(=O)Nc1cc(Br)ccc1Br [LFM-A13] (first compound 2 µM, partner dose 2 µM)", "cleaved PARP positive nuclei fraction": 177}
{"smiles": "O=C(Oc1ccc([N+](=O)[O-])cc1)N1CCC(C(O)(c2ccc3c(c2)OCO3)c2ccc3c(c2)OCO3)CC1", "note": "+ O=c1cc(-c2cccc3c2Sc2ccccc2S3)oc(N2CCOCC2)c1 [KU55933] (first compound 1 µM, partner dose 1 µM)", "cleaved PARP positive nuclei fraction": 108}
{"smiles": "C/C(O)=C(\\C#N)C(=O)Nc1cc(Br)ccc1Br", "note": "+ O=c1cc(-c2cccc3c2Sc2ccccc2S3)oc(N2CCOCC2)c1 [KU55933] (first compound 2 µM, partner dose 1 µM)", "cleaved PARP positive nuclei fraction": 85.2}
{"smiles": "C=CCn1c(=O)c2cnc(Nc3ccc(N4CCN(C)CC4)cc3)nc2n1-c1cccc(C(C)(C)O)n1", "note": "+ Cc1cc(SCc2sc(-c3ccc(C(F)(F)F)c(F)c3)nc2C)ccc1OCC(=O)O [GW0742] (first compound 0.02 µM, partner dose 2 µM)", "cleaved PARP positive nuclei fraction": 40.8}
{"smiles": "C[C@]1(c2nc3c(C(N)=O)cccc3[nH]2)CCCN1", "note": "[Veliparib] + Cc1cc(SCc2sc(-c3ccc(C(F)(F)F)c(F)c3)nc2C)ccc1OCC(=O)O [GW0742] (first compound 1.4 µM, partner dose 2 µM)", "cleaved PARP positive nuclei fraction": 45.1}
{"smiles": "CCN(CC)CCCCNc1ncc2cc(-c3cc(OC)cc(OC)c3)c(NC(=O)NC(C)(C)C)nc2n1", "note": "+ Cc1cc(SCc2sc(-c3ccc(C(F)(F)F)c(F)c3)nc2C)ccc1OCC(=O)O [GW0742] (first compound 0.1 µM, partner dose 2 µM)", "cleaved PARP positive nuclei fraction": 79.3}
{"smiles": "O=C(O)c1ccc(-c2c[nH]c3ncc(-c4ccccc4)cc23)cc1C1CCCC1", "note": "+ Cc1cc(SCc2sc(-c3ccc(C(F)(F)F)c(F)c3)nc2C)ccc1OCC(=O)O [GW0742] (first compound 0.16 µM, partner dose 2 µM)", "cleaved PARP positive nuclei fraction": 70.3}
{"smiles": "NC(=O)Nc1cc(-c2cccc(F)c2)sc1C(=O)N[C@H]1CCCNC1", "note": "+ O=C(Oc1ccc([N+](=O)[O-])cc1)N1CCC(C(O)(c2ccc3c(c2)OCO3)c2ccc3c(c2)OCO3)CC1 [JZL184] (first compound 0.02 µM, partner dose 1 µM)", "cleaved PARP positive nuclei fraction": 41.3}
{"smiles": "O=C(O)C(=O)Nc1sc2c(c1C(=O)O)CCNC2", "note": "+ O=C(Oc1ccc([N+](=O)[O-])cc1)N1CCC(C(O)(c2ccc3c(c2)OCO3)c2ccc3c(c2)OCO3)CC1 [JZL184] (first compound 1.66667 µM, partner dose 1 µM)", "cleaved PARP positive nuclei fraction": 136}
{"smiles": "COc1ccc(-c2ccc3c(N4CCOCC4)nc(N4C[C@@H](C)O[C@@H](C)C4)nc3n2)cc1CO", "note": "+ Cc1cc(SCc2sc(-c3ccc(C(F)(F)F)c(F)c3)nc2C)ccc1OCC(=O)O [GW0742] (first compound 0.02 µM, partner dose 2 µM)", "cleaved PARP positive nuclei fraction": 175}
